Results are given in words; binding and its absence hold for the method and conditions named. Binding seen in cells or lysates may run through a third protein. Some binding calls cover weakened binding; strength is not graded here. For some assays here: Tags and fused reporters may be left off the sequences shown.
Experiments:
[1] = biological target: T1, MRNIP-GFP (purified recombinant protein, forms droplets in vitro) (human) (UniProt Q6NTE8); test: co-sedimentation; droplet pelleting: MRNIP-GFP incubated with HeLa nuclear protein (1 μg/μL; legend: 10 µg) in 20 mM Tris-HCl pH 7.4, 150 mM NaCl, 20 min at 20 °C, centrifuged at 10,000 x g, 4 °C, 10 min; pellet immunoblotted; only the target purified
T1 sequence: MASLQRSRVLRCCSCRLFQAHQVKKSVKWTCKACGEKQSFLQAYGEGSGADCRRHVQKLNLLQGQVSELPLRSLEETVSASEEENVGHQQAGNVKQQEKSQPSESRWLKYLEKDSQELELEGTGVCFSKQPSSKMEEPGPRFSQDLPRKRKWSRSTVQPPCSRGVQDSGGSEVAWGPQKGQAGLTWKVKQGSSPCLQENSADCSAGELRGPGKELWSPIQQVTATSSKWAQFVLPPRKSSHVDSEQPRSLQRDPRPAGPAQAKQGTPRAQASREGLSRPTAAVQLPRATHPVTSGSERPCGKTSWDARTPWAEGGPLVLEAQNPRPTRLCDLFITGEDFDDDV

The chains behind the UniProt entries cited, without tags or fusion partners. Where a name states a change or a piece, a line headed by the entry shows the natural chain unless it says otherwise.
UniProt P49959: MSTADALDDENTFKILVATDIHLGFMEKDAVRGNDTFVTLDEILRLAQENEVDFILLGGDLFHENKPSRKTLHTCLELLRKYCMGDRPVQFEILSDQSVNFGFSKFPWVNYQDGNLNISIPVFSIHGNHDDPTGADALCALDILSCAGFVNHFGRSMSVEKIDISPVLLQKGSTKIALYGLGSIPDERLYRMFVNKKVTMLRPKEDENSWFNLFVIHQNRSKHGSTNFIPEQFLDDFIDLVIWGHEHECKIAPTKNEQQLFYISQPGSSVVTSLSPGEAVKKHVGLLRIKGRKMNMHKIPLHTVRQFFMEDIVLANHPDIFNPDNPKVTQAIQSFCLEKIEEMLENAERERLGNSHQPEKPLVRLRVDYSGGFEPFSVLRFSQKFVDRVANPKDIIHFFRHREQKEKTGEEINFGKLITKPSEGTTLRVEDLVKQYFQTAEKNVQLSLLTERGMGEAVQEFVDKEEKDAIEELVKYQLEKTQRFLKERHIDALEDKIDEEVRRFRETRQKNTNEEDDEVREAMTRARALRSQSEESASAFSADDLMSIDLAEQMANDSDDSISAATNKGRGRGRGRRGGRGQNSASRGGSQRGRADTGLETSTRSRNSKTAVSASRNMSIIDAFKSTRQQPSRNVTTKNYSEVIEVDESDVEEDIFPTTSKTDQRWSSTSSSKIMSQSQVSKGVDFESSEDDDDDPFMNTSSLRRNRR

[2] = biological target: T2, IDR1-deleted MRNIP (co-immunoprecipitation) (human) (UniProt Q6NTE8); test: co-IP; co-immunoprecipitation of wildtype or IDR1-deleted MRNIP with MRE11 / MRN complex; cells, bait and conditions not described
T2 sequence: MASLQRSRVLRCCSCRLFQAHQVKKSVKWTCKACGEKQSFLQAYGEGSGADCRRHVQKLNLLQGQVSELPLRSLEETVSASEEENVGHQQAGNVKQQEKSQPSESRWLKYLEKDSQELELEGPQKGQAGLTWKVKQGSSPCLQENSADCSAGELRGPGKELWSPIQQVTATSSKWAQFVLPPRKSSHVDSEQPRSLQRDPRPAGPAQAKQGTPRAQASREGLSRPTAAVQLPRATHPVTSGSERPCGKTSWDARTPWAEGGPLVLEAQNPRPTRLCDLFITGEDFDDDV

| Substance | binding [1] | binding [2] |
| --- | --- | --- |
| MRE11/RAD50/NBS1 (MRN) complex of HeLa nuclear extract (from UniProt P49959 1-708; Q92878 1-1312; O60934 1-754) | binds | – |
| MRN complex (co-immunoprecipitation) (from UniProt P49959 1-708; Q92878 1-1312; O60934 1-754) | – | no binding |

From paper PMC9098523
